Assay results published in paper PMC7065907.
These are yes or no findings as the source states them, for the method shown. Binding seen in cells or lysates may run through a third protein. A yes stands for co-enrichment or nearness to the bait. Other partners may have been found.

Protein sequences, listed by entry. Tags and fused reporters are not part of them. Lines headed by an entry give the natural chain unless they say otherwise; changes in a name come on top.
UniProt Q9Y5T5: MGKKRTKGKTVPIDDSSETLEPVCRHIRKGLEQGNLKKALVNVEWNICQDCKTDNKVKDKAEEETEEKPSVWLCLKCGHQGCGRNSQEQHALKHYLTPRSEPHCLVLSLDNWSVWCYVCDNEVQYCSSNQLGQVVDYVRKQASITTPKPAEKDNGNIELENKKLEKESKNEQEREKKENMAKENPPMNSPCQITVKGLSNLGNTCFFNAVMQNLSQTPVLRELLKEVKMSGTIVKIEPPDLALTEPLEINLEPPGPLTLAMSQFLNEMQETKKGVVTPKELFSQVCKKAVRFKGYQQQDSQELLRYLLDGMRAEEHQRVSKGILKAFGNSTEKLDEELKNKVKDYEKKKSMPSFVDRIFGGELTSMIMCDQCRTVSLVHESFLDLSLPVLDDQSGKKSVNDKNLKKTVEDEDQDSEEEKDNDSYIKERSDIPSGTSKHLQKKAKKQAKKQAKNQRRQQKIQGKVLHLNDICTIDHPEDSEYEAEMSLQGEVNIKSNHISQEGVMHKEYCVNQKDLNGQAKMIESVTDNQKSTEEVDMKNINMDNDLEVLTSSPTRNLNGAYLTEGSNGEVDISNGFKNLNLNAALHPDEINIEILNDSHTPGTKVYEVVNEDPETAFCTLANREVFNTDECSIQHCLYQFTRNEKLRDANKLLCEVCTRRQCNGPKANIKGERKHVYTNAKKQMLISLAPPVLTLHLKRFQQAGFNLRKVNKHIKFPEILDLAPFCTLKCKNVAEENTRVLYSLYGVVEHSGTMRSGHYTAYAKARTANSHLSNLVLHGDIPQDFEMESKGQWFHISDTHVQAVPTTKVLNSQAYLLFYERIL

B1: TSR1 (protein, UniProt Q2NL82 1-804)
chain: MAAHRPGPLKQQNKAHKGGRHRGRGSAQRDGKGRLALKTLSKKVRKELSRVDQRHRASQLRKQKKEAVLAEKRQLGGKDGPPHQVLVVPLHSRISLPEAMQLLQDRDTGTVHLNELGNTQNFMLLCPRLKHRWFFTSARPGDLHVVLDMAKVADTILFLLDPLEGWDSTGDYCLSCLFAQGLPTYTLAVQGISGLPLKKQIDTRKKLSKAVEKRFPHDKLLLLDTQQEAGMLLRQLANQKQQHLAFRDRRAYLFAHAVDFVPSEENNLVGTLKISGYVRGQTLNVNRLLHIVGYGDFQMKQIDAPGDPFPLNPRGIKPQKDPDMAMEICATDAVDDMEEGLKVLMKADPGRQESLQAEVIPDPMEGEQTWPTEEELSEAKDFLKESSKVVKKVPKGTSSYQAEWILDGGSQSGGEGDEYEYDDMEHEDFMEEESQDESSEEEEEYETMTIGESVHDDLYDKKVDEEAEAKMLEKYKQERLEEMFPDEVDTPRDVAARIRFQKYRGLKSFRTSPWDPKENLPQDYARIFQFQNFTNTRKSIFKEVEEKEVEGAEVGWYVTLHVSEVPVSVVECFRQGTPLIAFSLLPHEQKMSVLNMVVRRDPGNTEPVKAKEELIFHCGFRRFRASPLFSQHTAADKHKLQRFLTADMALVATVYAPITFPPASVLLFKQKSNGMHSLIATGHLMSVDPDRMVIKRVVLSGHPFKIFTKMAVVRYMFFNREDVLWFKPVELRTKWGRRGHIKEPLGTHGHMKCSFDGKLKSQDTVLMNLYKRVFPKWTYDPYVPEPVPWLKSEISSTVPQGGME
B2: NOB1 (enzyme, UniProt Q9ULX3 1-412)
chain: MAPVEHVVADAGAFLRHAALQDIGKNIYTIREVVTEIRDKATRRRLAVLPYELRFKEPLPEYVRLVTEFSKKTGDYPSLSATDIQVLALTYQLEAEFVGVSHLKQEPQKVKVSSSIQHPETPLHISGFHLPYKPKPPQETEKGHSACEPENLEFSSFMFWRNPLPNIDHELQELLIDRGEDVPSEEEEEEENGFEDRKDDSDDDGGGWITPSNIKQIQQELEQCDVPEDVRVGCLTTDFAMQNVLLQMGLHVLAVNGMLIREARSYILRCHGCFKTTSDMSRVFCSHCGNKTLKKVSVTVSDDGTLHMHFSRNPKVLNPRGLRYSLPTPKGGKYAINPHLTEDQRFPQLRLSQKARQKTNVFAPDYIAGVSPFVENDISSRSATLQVRDSTLGAGRRRLNPNASRKKFVKKR
B3: ENP1 (protein, UniProt Q13895 1-437)
chain: MPKFKAARGVGGQEKHAPLADQILAGNAVRAGVREKRRGRGTGEAEEEYVGPRLSRRILQQARQQQEELEAEHGTGDKPAAPRERTTRLGPRMPQDGSDDEDEEWPTLEKAATMTAAGHHAEVVVDPEDERAIEMFMNKNPPARRTLADIIMEKLTEKQTEVETVMSEVSGFPMPQLDPRVLEVYRGVREVLSKYRSGKLPKAFKIIPALSNWEQILYVTEPEAWTAAAMYQATRIFASNLKERMAQRFYNLVLLPRVRDDVAEYKRLNFHLYMALKKALFKPGAWFKGILIPLCESGTCTLREAIIVGSIITKCSIPVLHSSAAMLKIAEMEYSGANSIFLRLLLDKKYALPYRVLDALVFHFLGFRTEKRELPVLWHQCLLTLVQRYKADLATDQKEALLELLRLQPHPQLSPEIRRELQSAVPRDVEDVPITVE
B4: LTV1 (protein, UniProt Q96GA3 1-475)
chain: MPHRKKKPFIEKKKAVSFHLVHRSQRDPLAADESAPQRVLLPTQKIDNEERRAEQRKYGVFFDDDYDYLQHLKEPSGPSELIPSSTFSAHNRREEKEETLVIPSTGIKLPSSVFASEFEEDVGLLNKAAPVSGPRLDFDPDIVAALDDDFDFDDPDNLLEDDFILQANKATGEEEGMDIQKSENEDDSEWEDVDDEKGDSNDDYDSAGLLSDEDCMSVPGKTHRAIADHLFWSEETKSRFTEYSMTSSVMRRNEQLTLHDERFEKFYEQYDDDEIGALDNAELEGSIQVDSNRLQEVLNDYYKEKAENCVKLNTLEPLEDQDLPMNELDESEEEEMITVVLEEAKEKWDCESICSTYSNLYNHPQLIKYQPKPKQIRISSKTGIPLNVLPKKGLTAKQTERIQMINGSDLPKVSTQPRSKNESKEDKRARKQAIKEERKERRVEKKANKLAFKLEKRRQEKELLNLKKNVEGLKL
B5: NOP14 (protein, UniProt P78316 1-857)
chain: MAKAKKVGARRKASGAPAGARGGPAKANSNPFEVKVNRQKFQILGRKTRHDVGLPGVSRARALRKRTQTLLKEYKERDKSNVFRDKRFGEYNSNMSPEEKMMKRFALEQQRHHEKKSIYNLNEDEELTHYGQSLADIEKHNDIVDSDSDAEDRGTLSAELTAAHFGGGGGLLHKKTQQEGEEREKPKSRKELIEELIAKSKQEKRERQAQREDALELTEKLDQDWKEIQTLLSHKTPKSENRDKKEKPKPDAYDMMVRELGFEMKAQPSNRMKTEAELAKEEQEHLRKLEAERLRRMLGKDEDENVKKPKHMSADDLNDGFVLDKDDRRLLSYKDGKMNVEEDVQEEQSKEASDPESNEEEGDSSGGEDTEESDSPDSHLDLESNVESEEENEKPAKEQRQTPGKGLISGKERAGKATRDELPYTFAAPESYEELRSLLLGRSMEEQLLVVERIQKCNHPSLAEGNKAKLEKLFGFLLEYVGDLATDDPPDLTVIDKLVVHLYHLCQMFPESASDAIKFVLRDAMHEMEEMIETKGRAALPGLDVLIYLKITGLLFPTSDFWHPVVTPALVCLSQLLTKCPILSLQDVVKGLFVCCLFLEYVALSQRFIPELINFLLGILYIATPNKASQGSTLVHPFRALGKNSELLVVSAREDVATWQQSSLSLRWASRLRAPTSTEANHIRLSCLAVGLALLKRCVLMYGSLPSFHAIMGPLQALLTDHLADCSHPQELQELCQSTLTEMESQKQLCRPLTCEKSKPVPLKLFTPRLVKVLEFGRKQGSSKEEQERKRLIHKHKREFKGAVREIRKDNQFLARMQLSEIMERDAERKRKVKQLFNSLATQEGEWKALKRKKFKK

These binders were tested against T1, RIOK1(kd)-StHA (human) (UniProt Q9BRS2) (assay: affinity purification with mass spectrometry; one-step StrepTactin affinity purification of the StHA-tagged bait from lysates of tetracycline-induced HEK293 cells (lysis buffer with 2 µM avidin), elution with 2.5 mM d-desthiobiotin, biological triplicates, filtered against the HASt-GFP control).
T1 sequence: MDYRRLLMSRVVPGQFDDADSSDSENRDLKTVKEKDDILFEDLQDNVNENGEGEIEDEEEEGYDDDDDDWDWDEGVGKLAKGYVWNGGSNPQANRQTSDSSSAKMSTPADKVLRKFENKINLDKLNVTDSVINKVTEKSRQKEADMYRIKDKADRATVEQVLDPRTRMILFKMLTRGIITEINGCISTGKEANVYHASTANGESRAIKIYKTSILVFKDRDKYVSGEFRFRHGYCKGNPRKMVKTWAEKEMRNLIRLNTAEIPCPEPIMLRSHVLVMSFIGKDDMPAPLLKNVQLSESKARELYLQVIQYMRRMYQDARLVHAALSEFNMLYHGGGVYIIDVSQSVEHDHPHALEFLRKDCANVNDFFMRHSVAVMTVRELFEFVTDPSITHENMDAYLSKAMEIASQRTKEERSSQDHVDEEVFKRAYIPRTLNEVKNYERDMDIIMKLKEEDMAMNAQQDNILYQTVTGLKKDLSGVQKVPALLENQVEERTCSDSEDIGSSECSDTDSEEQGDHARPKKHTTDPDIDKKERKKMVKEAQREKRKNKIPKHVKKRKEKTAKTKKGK
In the case of B1, the binding is reported as “binds”. In the case of B2, the binding is reported as “binds”.

The binders below were run against USP16(C205S)-StHA (human) (UniProt Q9Y5T5) in the same assay as above.
For B3, the binding was “binds”. With B4 the binding was “binds”. For B1, the binding was “binds”. B2 was tested, and the binding was “binds”. For B5, the binding was “binds weakly”.

Each binder was assayed against USP16(WT)-StHA (human) (UniProt Q9Y5T5) in the same assay as above.
For B3, the binding was “binds”. With B4 the binding was “binds”. B1 was tested, and the binding was “binds”. For B2, the binding was “binds”. For B5, the binding was “binds weakly”.
